According to article PMC4317013 (The Journal of Biological Chemistry, 2014):

Test system: U937 cells
Assay: Interaction of PCI with cellular testisin on U937 cells
Format: cell-based
Conditions: 20 nM rmPCI

B1: rmPCI: recombinant mouse protein C inhibitor with N-terminal His tag (protein, UniProt P70458 25-405, looked up)
Plasma serine protease …: SKKKKAKESSVGAVGPPSSKDFAFRLYRALVSESPGQNVFFSPLSVSMSLGMLSLGAGLKTKTQILDGLGLSLQQGQEDKLHKGFQQLLQRFRQPSDGLQLSLGSALFKDPAVHIRDDFLSAMKTLYMSDTFSTNFGNPEIAKKQINNYVAKQTKGKIVDFIKDLDSTHVMIVVNYIFFKAKWQTAFSETNTHKMDFHVTPKRTTQVPMMNREDGYSYYLDQNISCTVVGIPYQGNAIALFILPSEGKMKQVEDGLDERTLRNWLKMFTKRRLDLYLPKFSIEATYKLENVLPKLGIQDVFTTHADLSGITDHTNIKLSEMVHKSMMEVEESGTTAAAITGAIFTFRSARPSSLKIEFTRPFLLTLMEDSHILFVGKVTRP
modifications: N-terminal His tag
1 and 4 h, 37 °C, Fig. 2D
  cleavage by media from PI-PLC-pretreated U937 cells: partial degradation
1 and 4 h, 37 °C, cells pretreated with 2 units/ml PI-PLC for 30 min, Fig. 2D
  cleavage by PI-PLC-pretreated U937 cells or media from untreated cells: did not affect the molecular weight
U937 cells 1 × 10^7 cells/ml, 4 h, Fig. 2B right panel
  detection with anti-penta-His IgG after incubation with U937 cells: cannot be detected
U937 cells 1 × 10^7 cells/ml, RMPI 1640 medium, 4 h, 37 °C, anti-mPCI IgG, Fig. 2B
  cleavage by U937 cells: is cleaved
